Laboratory results: PubChem BioAssay AID1259425 (University of Nebraska Medical Center, 2018)
Shown is a random part of about 14,000 reagents tested. Not all columns of the deposit are shown. Not given: the time to read-out.

- Purpose: 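Seek colon cancer weak points whose silencing resembles KSR1 loss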 (primary screen)
- System: HCT116 human colon cancer cells
- Reagents: siRNA pool against human genes, 50 nM siRNA
- Detection: 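mRNA of six signature genes measured together by branched-DNA assay after 50 nM siRNA pool, blank removed, divided by geometric mean of two housekeeping genes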
- Direction: BNIP3L mRNA: higher = more BNIP3L transcript after knockdown

Against PLCB4 [SID363992217], the entry reads BNIP3L mRNA, set 1 = 0.123.
Depletion of NDUFS5 [SID363995523] came out at: BNIP3L mRNA, set 1 = 0.126.
Knock-down of ZNF430 [SID364003299] came out at: BNIP3L mRNA, set 1 = 0.128.
After knock-down of MRPL30 [SID364000154], the screen gave BNIP3L mRNA, set 1 = 0.103.
Against PCDHAC1 [SID364001225], the entry reads BNIP3L mRNA, set 1 = 0.12.
Knock-down of ZFYVE9 [SID363995754] gave: BNIP3L mRNA, set 1 = 0.115.
OSGIN1 [SID363998477] scored BNIP3L mRNA, set 1 = 0.0894.
Knock-down of JAKMIP2 [SID363999107] came out at: BNIP3L mRNA, set 1 = 0.133.
After knock-down of SNX6 [SID364004695] the results were BNIP3L mRNA, set 1 = 0.0916.
BTN2A2 [SID363997732] gave BNIP3L mRNA, set 1 = 0.0679.
For CLEC3A [SID363996636], the entry reads BNIP3L mRNA, set 1 = 0.0639.
After knock-down of RSPH3 [SID364003702], the screen gave BNIP3L mRNA, set 1 = 0.194.
Depletion of UGCG [SID363994470] gave: BNIP3L mRNA, set 1 = 0.0739.
ZSCAN21 [SID364004679] showed BNIP3L mRNA, set 1 = 0.197.
SCP2 [SID363994130] scored BNIP3L mRNA, set 1 = 0.059.
Against ZKSCAN8 [SID363997120], the entry reads BNIP3L mRNA, set 1 = 0.143.
ATP4A [SID363992002] showed BNIP3L mRNA, set 1 = 0.0817.
Knock-down of PTP4A1 [SID363994563] gave: BNIP3L mRNA, set 1 = 0.0932.
For TBC1D4 [SID364005516] the deposit lists BNIP3L mRNA, set 1 = 0.136.
With knock-down of POLR3K [SID364000026] the results were BNIP3L mRNA, set 1 = 0.0729.
After knock-down of CYP11B1 [SID363991820] the results were BNIP3L mRNA, set 1 = 0.0453.
For ECE2 [SID363999037], the entry reads BNIP3L mRNA, set 1 = 0.231.
With knock-down of ECE2 [SID364003917], the record shows BNIP3L mRNA, set 1 = 0.126.
Depletion of ZNF398 [SID364001825] gave: BNIP3L mRNA, set 1 = 0.0864.
RBP5 [SID364003668] showed BNIP3L mRNA, set 1 = 0.109.
Knock-down of FST [SID363998508] resulted in: BNIP3L mRNA, set 1 = 0.0714.
After knock-down of HLA-G [SID363993333] the results were BNIP3L mRNA, set 1 = 0.0861.
For COA8 [SID364003954] the deposit lists BNIP3L mRNA, set 1 = 0.202.
